PubChem BioAssay AID1259308, NCATS | 2017
Screen: 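Knock-downs that increase output of a recombinant reporter protein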 (primary screen). Cells: human HEK293 embryonic kidney cells stably expressing firefly luciferase (HEK-CMV-Luc2-Hygro). Reagents: single siRNA against human genes, 0.8 pmol siRNA per well. Timing: 72 h. Read-out: 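Reporter luminescence and viable-cell signal on separate replicate plates, given as percent of non-targeting control and median/MAD z-scores, plus per-cell luciferase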. Direction: total luciferase, z-score and total luciferase, % of control: higher = more reporter protein produced; luciferase per cell, z-score: higher = more reporter output per viable cell; viable cells, % of control: higher = more viable cells. Hit rule: 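An siRNA counts as active if its total luciferase robust z-score exceeds 3; genes with two or more such siRNAs out of three were retested with fresh siRNAs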. Calls: active = raised luciferase; inactive = no rise.
This is a random part of about 59,000 deposited reagents. Of all reagents, about 1,510 (2.6%) are marked active. 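Calls use total luciferase alone and ignore viability, so some active siRNAs may act by altering cell number.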 Entries without a mark were called inactive.

The first 7 entries, to show the layout:
| Target gene | PubChem SID | total luciferase, z-score | total luciferase, % of control | luciferase per cell, z-score | viable cells, % of control |
| --- | --- | --- | --- | --- | --- |
| STK31 (serine/threonine kinase 31) | SID160744918 | 2.37 | 129 | 2.02 | 84.6 |
| STK31 (serine/threonine kinase 31) | SID160744919 | 2.68 | 135 | 1.71 | 96.4 |
| STK31 (serine/threonine kinase 31) | SID160744920 | -1.68 | 48.5 | -0.756 | 66.1 |
| UBA6 (ubiquitin like modifier activating enzyme 6) | SID160743307 | -0.636 | 69.2 | 0.399 | 69.7 |
| UBA6 (ubiquitin like modifier activating enzyme 6) | SID160743308 | -1.5 | 52.1 | -1.18 | 79.6 |
| UBA6 (ubiquitin like modifier activating enzyme 6) | SID160743309 | -0.706 | 67.8 | -0.858 | 95 |
| C14orf180 (chromosome 14 open reading frame 180) | SID160766950 | -0.0396 | 81.1 | 0.0414 | 89.6 |

The list itself, from the first entry:
| Target gene | PubChem SID | total luciferase, z-score | total luciferase, % of control | luciferase per cell, z-score | viable cells, % of control |
| --- | --- | --- | --- | --- | --- |
| STK31 (serine/threonine kinase 31) | SID160744918 | 2.37 | 129 | 2.02 | 84.6 |
| STK31 (serine/threonine kinase 31) | SID160744919 | 2.68 | 135 | 1.71 | 96.4 |
| STK31 (serine/threonine kinase 31) | SID160744920 | -1.68 | 48.5 | -0.756 | 66.1 |
| UBA6 (ubiquitin like modifier activating enzyme 6) | SID160743307 | -0.636 | 69.2 | 0.399 | 69.7 |
| UBA6 (ubiquitin like modifier activating enzyme 6) | SID160743308 | -1.5 | 52.1 | -1.18 | 79.6 |
| UBA6 (ubiquitin like modifier activating enzyme 6) | SID160743309 | -0.706 | 67.8 | -0.858 | 95 |
| C14orf180 (chromosome 14 open reading frame 180) | SID160766950 | -0.0396 | 81.1 | 0.0414 | 89.6 |
| C14orf180 (chromosome 14 open reading frame 180) | SID160766951 | 0.0256 | 82.4 | 0.225 | 86.8 |
| C14orf180 (chromosome 14 open reading frame 180) | SID160766952 | 0.868 | 99.1 | 1.38 | 77 |
| MAN1A1 (mannosidase alpha class 1A member 1) | SID160776931 | 3.03 (active) | 142 | 1.93 | 95.4 |
| MAN1A1 (mannosidase alpha class 1A member 1) | SID160776932 | -0.44 | 73.1 | -0.618 | 96.2 |
| MAN1A1 (mannosidase alpha class 1A member 1) | SID160776933 | 0.0794 | 83.5 | 0.0228 | 92.7 |
| WDR64 (WD repeat domain 64) | SID160756695 | -0.0138 | 81.6 | 0.623 | 77.4 |
| WDR64 (WD repeat domain 64) | SID160756696 | -0.129 | 79.3 | 0.0892 | 86.6 |
| WDR64 (WD repeat domain 64) | SID160756697 | -0.91 | 63.8 | -1.52 | 106 |
| GK2 (glycerol kinase 2) | SID160771141 | 2.16 | 125 | 2.04 | 81.6 |
| GK2 (glycerol kinase 2) | SID160771147 | 1.41 | 110 | 0.757 | 101 |
| GK2 (glycerol kinase 2) | SID160771156 | -0.298 | 76 | -0.579 | 98.9 |
| CEP112 (centrosomal protein 112) | SID160732659 | -0.517 | 71.6 | -0.31 | 86.8 |
| CEP112 (centrosomal protein 112) | SID160760927 | -2.13 | 39.5 | -2.26 | 80.1 |
| CEP112 (centrosomal protein 112) | SID160760928 | -1.89 | 44.2 | -2.12 | 86.5 |
| TIMCC (TIM double twin CX3C motif chaperone) | SID160752908 | -0.587 | 70.2 | 0.0948 | 76.5 |
| TIMCC (TIM double twin CX3C motif chaperone) | SID160752909 | -2.71 | 28.1 | -2.17 | 55.5 |
| TIMCC (TIM double twin CX3C motif chaperone) | SID160752911 | 0.343 | 88.7 | 0.329 | 90.9 |
| NSDHL (NAD(P) dependent 3-beta-hydroxysteroid dehydrogenase NSDHL) | SID160739724 | -0.344 | 75.1 | -0.667 | 100 |
| NSDHL (NAD(P) dependent 3-beta-hydroxysteroid dehydrogenase NSDHL) | SID160739725 | 0.292 | 87.7 | 0.449 | 87.1 |
| NSDHL (NAD(P) dependent 3-beta-hydroxysteroid dehydrogenase NSDHL) | SID160739726 | 1.12 | 104 | 0.764 | 95.1 |
| RRP1B (ribosomal RNA processing 1B) | SID160732737 | 0.468 | 91.2 | 0.946 | 79.4 |
| RRP1B (ribosomal RNA processing 1B) | SID160735390 | 0.439 | 90.6 | -0.513 | 116 |
| RRP1B (ribosomal RNA processing 1B) | SID160735391 | -2.56 | 31.1 | -3.24 | 81.4 |
| PRRG2 (proline rich and Gla domain 2) | SID160715093 | -1.29 | 56.2 | -1.09 | 83.8 |
| PRRG2 (proline rich and Gla domain 2) | SID160715094 | 0.19 | 85.7 | -0.0452 | 96.9 |
| PRRG2 (proline rich and Gla domain 2) | SID160724007 | -0.149 | 78.9 | -0.906 | 112 |
| IDO1 (indoleamine 2,3-dioxygenase 1) | SID160731137 | 1.02 | 102 | 0.512 | 99.8 |
| IDO1 (indoleamine 2,3-dioxygenase 1) | SID160775838 | -1.14 | 59.3 | 0.604 | 56.5 |
| IDO1 (indoleamine 2,3-dioxygenase 1) | SID160775839 | 0.0105 | 82.1 | -0.115 | 94.5 |
| LTN1 (listerin E3 ubiquitin protein ligase 1) | SID160737526 | -1.31 | 55.9 | -0.203 | 65.9 |
| LTN1 (listerin E3 ubiquitin protein ligase 1) | SID160737527 | -0.021 | 81.5 | -0.495 | 104 |
| LTN1 (listerin E3 ubiquitin protein ligase 1) | SID160737528 | -0.313 | 75.7 | 0.161 | 81 |
| CD9 (CD9 molecule) | SID160738528 | -1.47 | 52.6 | -1.61 | 89.9 |
| CD9 (CD9 molecule) | SID160738538 | -0.445 | 73 | -0.0873 | 83.5 |
| CD9 (CD9 molecule) | SID160738549 | 0.257 | 87 | 0.674 | 81.4 |
| MYF6 (myogenic factor 6) | SID160777644 | -1.01 | 61.7 | -0.847 | 86.2 |
| MYF6 (myogenic factor 6) | SID160777645 | -0.648 | 69 | -0.422 | 86.2 |
| MYF6 (myogenic factor 6) | SID160777646 | -1.23 | 57.4 | -1.07 | 85 |
| FBXW11 (F-box and WD repeat domain containing 11) | SID160735930 | -1.84 | 45.3 | -2.24 | 91.4 |
| FBXW11 (F-box and WD repeat domain containing 11) | SID160735931 | -0.476 | 72.4 | -0.719 | 97.8 |
| FBXW11 (F-box and WD repeat domain containing 11) | SID160735932 | 0.657 | 95 | -0.197 | 112 |
| TMC4 (transmembrane channel like 4) | SID160758569 | -0.507 | 71.8 | -0.249 | 85.7 |
| TMC4 (transmembrane channel like 4) | SID160758570 | -1.56 | 50.9 | -1.83 | 91.9 |
| TMC4 (transmembrane channel like 4) | SID160758571 | -0.816 | 65.7 | -1.07 | 97.1 |
| GAS2L1 (growth arrest specific 2 like 1) | SID160728917 | -0.229 | 77.3 | -0.213 | 91.4 |
| GAS2L1 (growth arrest specific 2 like 1) | SID160728918 | -0.573 | 70.5 | -0.322 | 85.7 |
| GAS2L1 (growth arrest specific 2 like 1) | SID160728919 | 0.391 | 89.7 | 0.311 | 92.3 |
| CAPSL (calcyphosine like) | SID160730595 | -0.462 | 72.7 | -0.634 | 96 |
| CAPSL (calcyphosine like) | SID160757277 | -0.232 | 77.3 | -0.887 | 109 |
| CAPSL (calcyphosine like) | SID160757278 | -0.414 | 73.6 | -1.13 | 111 |
